# Reference: publication PMC6692053
# B1: mouse S100A7 (protein, UniProt Q6S5I3 1-108)
# chain: MPDTPVEDSLFQIIHCFHHYAAREGDKETLSLEELKALLLDSVPRFMDTLGRRQPYYITELFRAADKNKDNQICFDEFLYILGKLVKDYHLQFHRQLCAHYCTEHSLY
# Target: recombinant TdfJ on the surface of E. coli (Neisseria gonorrhoeae)
# Test: far-Western, overlay or dot blot; competition: whole cells on nitrocellulose probed with S100A7-HRP with simultaneous addition of 10-fold molar excess of unlabeled human S100A7, mouse S100A7 or S100A12, colorimetric detection; only the binder purified
binder,measurement,value
B1,binding,no binding (tested: 10-fold molar excess over S100A7-HRP)

# These are yes or no findings as the source states them, for the method shown.
